In paper PMC10629813 one finds binding data, which are given here for 1 substance.

Sequences of proteins named here, by UniProt entry; tags and fusion partners are left off. A change or cut given only in a name is not applied to a line headed by its entry.
UniProt Q13263: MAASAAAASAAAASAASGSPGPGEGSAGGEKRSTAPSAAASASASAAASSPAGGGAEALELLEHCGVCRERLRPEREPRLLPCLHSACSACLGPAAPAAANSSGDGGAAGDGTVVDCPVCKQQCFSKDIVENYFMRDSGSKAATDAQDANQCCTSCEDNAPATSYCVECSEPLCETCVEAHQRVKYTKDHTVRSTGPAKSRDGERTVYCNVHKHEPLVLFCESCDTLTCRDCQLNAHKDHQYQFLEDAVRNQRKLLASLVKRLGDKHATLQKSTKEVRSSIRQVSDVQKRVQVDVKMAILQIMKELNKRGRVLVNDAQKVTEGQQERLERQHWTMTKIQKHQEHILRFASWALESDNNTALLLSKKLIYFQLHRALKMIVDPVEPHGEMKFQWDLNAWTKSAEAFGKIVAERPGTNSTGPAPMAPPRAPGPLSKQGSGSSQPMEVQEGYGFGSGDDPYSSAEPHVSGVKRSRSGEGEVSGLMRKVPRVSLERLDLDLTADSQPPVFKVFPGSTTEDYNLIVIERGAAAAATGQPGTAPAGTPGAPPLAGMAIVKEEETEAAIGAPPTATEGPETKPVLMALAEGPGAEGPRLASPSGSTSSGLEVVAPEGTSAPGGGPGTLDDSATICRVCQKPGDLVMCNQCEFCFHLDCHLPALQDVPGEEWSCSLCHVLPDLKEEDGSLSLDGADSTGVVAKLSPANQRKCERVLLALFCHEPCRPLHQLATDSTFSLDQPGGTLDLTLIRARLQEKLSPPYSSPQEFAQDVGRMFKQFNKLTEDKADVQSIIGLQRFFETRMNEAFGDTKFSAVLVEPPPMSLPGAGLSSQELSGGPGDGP
UniProt Q9UBW7: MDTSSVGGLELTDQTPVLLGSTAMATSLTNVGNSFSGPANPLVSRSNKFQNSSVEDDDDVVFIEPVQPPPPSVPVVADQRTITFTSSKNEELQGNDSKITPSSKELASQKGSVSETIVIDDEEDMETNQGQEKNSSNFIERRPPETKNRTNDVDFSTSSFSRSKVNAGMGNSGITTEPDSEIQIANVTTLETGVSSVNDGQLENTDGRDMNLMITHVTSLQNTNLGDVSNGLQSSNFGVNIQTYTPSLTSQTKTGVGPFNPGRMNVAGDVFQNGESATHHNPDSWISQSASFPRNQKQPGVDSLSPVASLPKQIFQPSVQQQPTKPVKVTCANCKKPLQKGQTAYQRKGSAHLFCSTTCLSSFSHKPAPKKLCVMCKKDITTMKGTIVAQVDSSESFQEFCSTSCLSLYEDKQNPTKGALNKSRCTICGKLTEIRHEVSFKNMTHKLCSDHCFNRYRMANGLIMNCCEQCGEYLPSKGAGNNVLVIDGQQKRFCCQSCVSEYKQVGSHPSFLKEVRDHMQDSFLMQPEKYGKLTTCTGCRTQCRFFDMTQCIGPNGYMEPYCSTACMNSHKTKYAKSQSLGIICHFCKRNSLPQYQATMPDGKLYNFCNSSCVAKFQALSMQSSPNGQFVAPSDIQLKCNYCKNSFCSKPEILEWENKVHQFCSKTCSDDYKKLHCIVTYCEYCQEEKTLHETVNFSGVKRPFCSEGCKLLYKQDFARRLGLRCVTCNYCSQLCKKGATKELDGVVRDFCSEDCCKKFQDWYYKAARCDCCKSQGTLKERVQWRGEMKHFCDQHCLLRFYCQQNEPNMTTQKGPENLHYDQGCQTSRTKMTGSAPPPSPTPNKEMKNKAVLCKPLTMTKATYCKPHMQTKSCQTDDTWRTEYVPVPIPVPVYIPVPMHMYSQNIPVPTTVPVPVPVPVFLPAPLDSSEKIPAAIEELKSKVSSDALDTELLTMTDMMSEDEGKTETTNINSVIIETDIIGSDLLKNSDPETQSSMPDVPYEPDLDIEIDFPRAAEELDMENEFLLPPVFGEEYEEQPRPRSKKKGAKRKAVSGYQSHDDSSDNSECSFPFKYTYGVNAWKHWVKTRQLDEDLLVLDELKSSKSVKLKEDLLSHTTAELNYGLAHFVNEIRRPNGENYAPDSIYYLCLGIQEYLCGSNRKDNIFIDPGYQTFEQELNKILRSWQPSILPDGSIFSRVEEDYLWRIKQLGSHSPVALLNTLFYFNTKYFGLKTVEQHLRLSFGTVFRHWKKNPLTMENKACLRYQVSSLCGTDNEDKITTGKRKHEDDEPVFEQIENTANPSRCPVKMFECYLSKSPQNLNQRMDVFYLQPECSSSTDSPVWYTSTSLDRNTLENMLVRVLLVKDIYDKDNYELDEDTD

These are yes or no findings as the source states them, for the method shown. In cells and extracts the contact can be indirect. A result given as binding can be weak or reduced; the word gives no strength.

In this experiment the target is TRIM28 (endogenous, HEK293T cells) (human (endogenous in HEK293T)) (UniProt Q13263). Description: co-IP; HEK293T cells transfected 24 hr with EGFP-tagged ZMYM2 plasmids; lysates with protease inhibitors and 20 mM NEM; IP with TRIM28 antibody, immunoblot with GFP and TRIM28 antibodies. A general note: Immunoblotting shows a protein as a band on a membrane.

Turning to “EGFP-ZMYM2(SIMmut) (from UniProt Q9UBW7)”, the binding entry is listed as “binds”.
